Measured values: patent US20100056516A1 (priority 2006, published 2010)
Some entries share one result that the patent states for a list of compounds.

Biological target: HIV-1 reverse transcriptase (RNase H) (Human immunodeficiency virus type 1 group M subtype B, UniProt P04585)
Assay: ASH assay: RNase H mediated RNA cleavage (ECL format, BioVeris M384)
Assay type: biochemical
Conditions: 5'-ruthenium oligo, BioVeris M384 analyzer

Structure (SMILES) | IC50 [µM]
O=c1c(-c2c(F)cccc2F)c(O)c2cccnc2n1O [Example 29, 3-(2,6-Difluorophenyl)-1,4-dihydroxy-1,8-naphthyridin-2(1H)-one] | < 100
O=c1c(-c2ccccc2F)c(O)c2cccnc2n1O [Example 32, 3-(2-Fluorophenyl)-1,4-dihydroxy-1,8-naphthyridin-2(1H)-one] | < 100
CC(Br)Cc1cnc2c(c1)c(O)c(-c1ccccc1)c(=O)n2O (centres unmarked) [Example 74, 6-(2-Bromopropyl)-1,4-dihydroxy-3-phenyl-1,8-naphthyridin-2(1H)-one] | < 100
O=c1c(-c2ccccc2)c(O)c2cc(Br)cnc2n1O [Example 47, 6-Bromo-1,4-dihydroxy-3-phenyl-1,8-naphthyridin-2(1H)-one] | < 100
NCc1cccc(-c2cccc(Cc3cc(=O)n(O)c4ncccc34)c2)c1 [Example 231, 4-{[3′-(aminomethyl)biphenyl-3-yl]methyl}-1-hydroxy-1,8-naphthyridin-2(1 H)-one] | < 100
CCOC(=O)c1c(O)c2cc(-c3ccccc3OC)cnc2n(O)c1=O [Example 61, Ethyl 1,4-dihydroxy-6-(2-methoxyphenyl)-2-oxo-1,2-dihydro-1,8-naphthyridine-3-carboxylate] | < 100
O=c1cc(NC(CN2CCCCC2)c2ccccc2)c2cccnc2n1O (centres unmarked) [Example 166, 1-hydroxy-4-{[1-phenyl-2-(1-piperidinyl)ethyl]amino}-1,8-naphthyridin-2 (1H-one)] | < 100
O=c1cc(N2CCCC(F)C2)c2cccnc2n1O (centres unmarked) [Example 118, 4-(3-fluoropiperidin-1-yl)-1-hydroxy-1,8-naphthyridin-2(1H)-one] | < 100
O=c1cc(NCc2cccc(CN3CCCCC3)c2)c2cccnc2n1O [Example 153] | < 100
O=c1cc(Nc2cccc(-c3ccccc3)c2)c2cccnc2n1O [Example 105, 4-(Biphenyl-3-ylamino)-1-hydroxy-1,8-naphthyridin-2(1H)-one] | < 100
COC(=O)CCc1cccc(-c2cccc(-c3cc(=O)n(O)c4ncccc34)c2)c1 [Example 187, methyl-3-[3′-(1-hydroxy-2-oxo-1,2-dihydro-1,8-naphthyridin-4-yl)biphenyl-3-yl]-propanoate] | < 100
O=C(NCC(F)(F)F)c1c(O)c2cccnc2n(O)c1=O [Example 22, 1,4-Dihydroxy-2-oxo-N-(2,2,2-trifluoroethyl)-1,2-dihydro-1,8-naphthyridine-3-carboxamide] | < 100
O=c1cc(-c2cccc(CO)c2)c2cccnc2n1O [Example 183, 1-hydroxy-4-[3-(hydroxymethyl)phenyl]-1,8-naphthyridin-2(1H)-one] | < 100
O=c1cc(N[C@@H]2CCN(Cc3ccccc3)C2)c2cccnc2n1O [Example 113, 4-{[(3R)-1-Benzylpyrrolidin-3-yl]amino}-1-hydroxy-1,8-naphthyridin-2(1H)-one] | < 100
CCOC(=O)c1c(O)c2cccnc2n(O)c1=O [Example 1, Ethyl 1,4-dihydroxy-2-oxo-1,2-dihydro-1,8-naphthyridine-3-carboxylate] | < 100
CC(NCc1cccc(Cl)c1)c1cnc2c(c1)c(O)c(-c1ccccc1)c(=O)n2O (centres unmarked) [Example 76, 6-{1-[(3-Chlorobenzyl)amino]ethyl}-1,4-dihydroxy-3-phenyl-1,8-napthyridin-2(1H)-one] | < 100
N#Cc1ccc2c(c1)CN(c1cc(=O)n(O)c3ncccc13)CC2 [Example 120, 2-(1-hydroxy-2-oxo-1,2-dihydro-1,8-naphthyridin-4-yl)-1,2,3,4-tetrahydroisoquinoline-7-carbonitrile] | < 100
COc1ccc(-c2ccncc2)cc1-c1cc(=O)n(O)c2ncccc12 [Example 185, 1-hydroxy-4-(2-methoxy-5-pyridin-4-ylphenyl)-1,8-naphthyridin-2(1H)-one] | < 100
O=c1cc(NCc2ccccc2F)c2cccnc2n1O [Example 155, 4-[(2-fluorobenzyl)amino]-1-hydroxy-1,8-naphthyridin-2(1H-one)] | < 100
O=c1cc(N2CCC(Cc3ccccc3)CC2)c2cccnc2n1O [Example 133, 4-(4-benzylpiperidin-1-yl)-1-hydroxy-1,8-naphthyridin-2(1H)-one] | < 100
O=c1cc(-c2ccc(NCCN3CCOCC3)nc2)c2cccnc2n1O [Example 200, 1-hydroxy-4-{6-[(2-morpholin-4-ylethyl)amino]pyridin-3-yl}-1,8-naphthyridin-2(1H)-one] | < 100
CN1C(=O)c2c(c3cccnc3n(O)c2=O)NC1c1cccc(Oc2ccccc2)c1 (centres unmarked) [Example 218, 6-Hydroxy-3-methyl-2-(3-phenoxyphenyl)-2,3-dihydropyrimido[5,4-c]-1,8-naphthyridine-4,5(1H, 6H)dione] | < 100
NCc1cccc(-c2cccc(-c3cc(=O)n(O)c4ncccc34)c2)c1 [Example 204, 4-[3′-(aminomethyl)biphenyl-3-yl]-1-hydroxy-1,8-naphthyridin-2(1H)-one] | < 100
CCOC(=O)c1ccnc2c1c(-c1ccc(-c3ccc(CN)cc3)cc1)cc(=O)n2O [Example 241, Ethyl 5-[4′-(aminomethyl)biphenyl-4-yl]-8-hydroxy-7-oxo-7,8-dihydro-1,8-naphthyridine-4-carboxylate] | < 100

Structure (SMILES) | IC50 [µM]
NCc1ccc(-c2cccc(Cc3cc(=O)n(O)c4ncccc34)c2)cc1 [Example 232, 4-{[4′-(aminomethyl)biphenyl-3-yl]methyl}-1-hydroxy-1,8-naphthyridin-2(1H)-one] | < 100
CN(Cc1cccc(Cn2cncn2)c1)c1cc(=O)n(O)c2ncccc12 [Example 116] | < 100
CCOC(=O)c1c(O)c2cc(C(=O)N3CCC(CCc4ccccc4)CC3)cnc2n(O)c1=O [Example 84, Ethyl 1,4-dihydroxy-2-oxo-6-{[4-(2-phenylethyl)piperidin-1-yl]carbonyl}-1,2-dihydro-1,8-naphthyridine-3-carboxylate] | < 100
CCOC(=O)c1c(N2CCc3ccc(-c4ccc(F)cc4)cc3C2)c2cccnc2n(O)c1=O [Example 258, ethyl 4-[7-(4-fluorophenyl)-3,4-dihydroisoquinolin-2(1H)-yl]-1-hydroxy-2-oxo-1,2-dihydro-1,8-naphthyridine-3-carboxylate] | < 100
O=c1c(-c2cccc(C(F)(F)F)c2)c(O)c2cccnc2n1O [Example 28, 1,4-Dihydroxy-3-[3-(trifluoromethyl)phenyl]-1,8-naphthyridin-2(1H)-one] | < 100
O=c1cc(NC2CCN(c3ccccc3)CC2)c2cccnc2n1O [Example 154, 1-hydroxy-4-[(1-phenyl-4-piperidinyl)amino]-1,8-naphthyridin-2(1H-one)] | < 100
O=c1cc(NCc2ccc(CN3CCOCC3)cc2)c2cccnc2n1O [Example 111, 1-Hydroxy-4-{[4-(morpholin-4-ylmethyl)benzyl]amino}-1,8-naphthyridin-2(1H)-one] | < 100
CCOC(=O)c1c(O)c2cc(-c3cccc(O)c3)cnc2n(O)c1=O [Example 59, Ethyl 1,4-dihydroxy-6-(3-hydroxyphenyl)-2-oxo-1,2-dihydro-1,8-naphthyridine-3-carboxylate] | < 100
CCOC(=O)c1c(O)c2c(-c3ccccc3)ccnc2n(O)c1=O [Example 4, Ethyl 1,4-dihydroxy-2-oxo-5-phenyl-1,2-dihydro-1,8-naphthylidine-3-carboxylate] | < 100
O=c1cc(NCc2ccccc2Cl)c2cccnc2n1O [Example 141, 4-[(2-chlorobenzyl)amino]-1-hydroxy-1,8-naphthyridin-2(1H-one)] | < 100
O=c1c(-c2ccccc2)c(O)c2cc(S(=O)(=O)Nc3ccccc3)cnc2n1O [Example 95, 5,8-Dihydroxy-7-oxo-N,6-diphenyl-7,8-dihydro-1,8-naphthyridine-3-sulfonamide] | < 100
O=c1cc(-c2ccc3ncccc3c2)c2cccnc2n1O [Example 184, 1-hydroxy-4-quinolin-6-yl-1,8-naphthyridin-2(1H)-one] | < 100
O=c1cc(C2=Cc3ccccc3CC2)c2cccnc2n1O [Example 246, 4-(3,4-dihydronaphthalen-2-yl)-1-hydroxy-1,8-naphthyridin-2(1H)-one] | < 100
O=c1cc(NCc2ccccn2)c2cccnc2n1O [Example 149, 1-hydroxy-4-[(2-pyridinylmethyl)amino]-1,8-naphthyridin-2(1H-one)] | < 100
O=c1cc(O)c2cccnc2n1O [Example 2, 1,4-Dihydroxy-1,8-naphthyridin-2(1B)-one] | < 100
CS(=O)(=O)Nc1cccc(-c2cnc3c(c2)c(O)cc(=O)n3O)c1 [Example 69, N-[3-(5,8-Dihydroxy-7-oxo-7,8-dihydro-1,8-naphthyridin-3-yl)phenyl]methane-sulfonamide] | < 100
CCOC(=O)c1c(O)c2c(-c3cccc(CN(C)C)c3)ccnc2n(O)c1=O [Example 230, ethyl 5-{3-[(dimethylamino)methyl]phenyl}-1,4-dihydroxy-2-oxo-1,2-dihydro-1,8-naphthyridine-3-carboxylate] | < 100
O=c1cc(-c2cccc(-c3cccc(CNCc4ccccc4)c3)c2)c2cccnc2n1O [Example 205, 4-{3′-[(benzylamino)methyl]biphenyl-3-yl}-1-hydroxy-1,8-naphthyridin-2(H)-one] | < 100
O=c1cc(NCCN2CCOCC2)c2cccnc2n1O [Example 161] | < 100
O=c1c(-c2ccc(F)cc2)c(O)c2cccnc2n1O [Example 34, 3-(4-Fluorophenyl)-1,4-dihydroxy-1,8-naphthyridin-2(1H)-one] | < 100
CCOC(=O)c1c(N)c2cc(-c3ccccc3)cnc2n(O)c1=O [Example 98, Ethyl 4-amino-1-hydroxy-2-oxo-6-phenyl-1,2-dihydro-1,8-naphthyridine-3-carboxylate] | < 100
CCOC(=O)c1cnc2c(c1)c(O)c(C(=O)NCc1ccccc1)c(=O)n2O [Example 92, Ethyl 6-[(benzylamino)carbonyl]-5,8-dihydroxy-7-oxo-7,8-dihydro-1,8-naphthyridine-3-carboxylate] | < 100
O=C(c1cccc(-c2cc(=O)n(O)c3ncccc23)c1)N1CCCC1 [Example 195, 1-hydroxy-4-[3-(pyrrolidin-1-ylcarbonyl)phenyl]-1,8-naphthyridin-2(1H)-one] | < 100
